Laboratory results published in the supplement of paper PMC10849652.
This is one part of the list.

Sequences of proteins named here, by UniProt entry; tags and fusion partners are left off. A change or cut given only in a name is not applied to a line headed by its entry.
UniProt Q9UQB8: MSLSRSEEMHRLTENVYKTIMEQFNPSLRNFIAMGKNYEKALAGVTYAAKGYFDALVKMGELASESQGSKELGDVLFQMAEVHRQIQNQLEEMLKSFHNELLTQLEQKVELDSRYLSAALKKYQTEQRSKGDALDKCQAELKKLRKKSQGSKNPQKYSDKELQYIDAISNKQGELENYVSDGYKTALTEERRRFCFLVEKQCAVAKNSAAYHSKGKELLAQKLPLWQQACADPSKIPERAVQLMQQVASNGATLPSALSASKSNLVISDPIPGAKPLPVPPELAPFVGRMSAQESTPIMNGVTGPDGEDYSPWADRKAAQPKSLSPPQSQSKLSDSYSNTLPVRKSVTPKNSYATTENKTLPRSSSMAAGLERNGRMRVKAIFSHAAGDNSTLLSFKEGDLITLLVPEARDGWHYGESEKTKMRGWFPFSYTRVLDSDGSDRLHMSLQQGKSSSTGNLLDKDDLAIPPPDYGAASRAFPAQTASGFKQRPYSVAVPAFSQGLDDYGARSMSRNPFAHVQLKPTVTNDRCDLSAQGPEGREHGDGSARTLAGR
UniProt Q7Z5W3: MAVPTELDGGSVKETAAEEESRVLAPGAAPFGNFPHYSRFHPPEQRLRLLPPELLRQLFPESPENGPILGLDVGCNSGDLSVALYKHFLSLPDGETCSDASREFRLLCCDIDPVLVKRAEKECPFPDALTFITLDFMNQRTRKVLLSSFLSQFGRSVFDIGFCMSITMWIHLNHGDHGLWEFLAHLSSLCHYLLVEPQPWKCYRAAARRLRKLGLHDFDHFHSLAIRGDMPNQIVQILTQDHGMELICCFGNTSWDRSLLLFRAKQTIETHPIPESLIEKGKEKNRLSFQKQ
UniProt P25440, whole entry, looked up: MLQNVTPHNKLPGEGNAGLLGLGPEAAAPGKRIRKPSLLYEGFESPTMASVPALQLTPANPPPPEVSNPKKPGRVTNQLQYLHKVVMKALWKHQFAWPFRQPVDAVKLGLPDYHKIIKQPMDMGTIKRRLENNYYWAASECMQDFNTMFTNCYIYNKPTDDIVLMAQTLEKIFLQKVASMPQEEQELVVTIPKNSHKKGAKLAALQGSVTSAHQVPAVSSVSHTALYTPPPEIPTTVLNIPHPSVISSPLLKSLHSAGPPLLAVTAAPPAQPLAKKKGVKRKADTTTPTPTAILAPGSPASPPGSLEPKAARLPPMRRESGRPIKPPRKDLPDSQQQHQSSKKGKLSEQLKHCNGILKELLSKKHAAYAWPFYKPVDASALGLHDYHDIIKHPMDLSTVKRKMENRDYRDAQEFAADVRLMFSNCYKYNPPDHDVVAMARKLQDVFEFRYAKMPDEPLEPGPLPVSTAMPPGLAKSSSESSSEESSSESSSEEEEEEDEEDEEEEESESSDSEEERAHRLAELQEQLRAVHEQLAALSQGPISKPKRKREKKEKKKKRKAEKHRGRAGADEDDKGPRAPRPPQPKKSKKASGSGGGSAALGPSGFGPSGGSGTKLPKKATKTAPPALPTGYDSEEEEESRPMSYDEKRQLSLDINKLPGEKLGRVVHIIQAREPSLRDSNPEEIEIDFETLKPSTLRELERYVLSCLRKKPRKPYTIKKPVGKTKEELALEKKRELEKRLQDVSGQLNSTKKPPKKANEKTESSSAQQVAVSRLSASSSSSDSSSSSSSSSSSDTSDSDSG
UniProt O60513: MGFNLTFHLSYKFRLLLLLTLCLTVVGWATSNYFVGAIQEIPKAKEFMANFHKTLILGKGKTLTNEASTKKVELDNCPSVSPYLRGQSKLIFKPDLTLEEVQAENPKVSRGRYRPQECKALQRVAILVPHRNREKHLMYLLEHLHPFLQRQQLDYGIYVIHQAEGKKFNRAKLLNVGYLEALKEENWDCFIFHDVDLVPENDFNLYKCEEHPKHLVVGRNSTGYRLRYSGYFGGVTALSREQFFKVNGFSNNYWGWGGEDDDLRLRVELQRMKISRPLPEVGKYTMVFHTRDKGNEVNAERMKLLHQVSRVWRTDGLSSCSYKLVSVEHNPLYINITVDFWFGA
UniProt Q8IXM2, whole entry, looked up: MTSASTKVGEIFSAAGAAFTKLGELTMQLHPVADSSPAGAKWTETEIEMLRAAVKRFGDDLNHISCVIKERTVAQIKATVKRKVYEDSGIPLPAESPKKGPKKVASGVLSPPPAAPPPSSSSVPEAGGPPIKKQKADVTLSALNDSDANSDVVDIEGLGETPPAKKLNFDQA
UniProt Q5T6C5: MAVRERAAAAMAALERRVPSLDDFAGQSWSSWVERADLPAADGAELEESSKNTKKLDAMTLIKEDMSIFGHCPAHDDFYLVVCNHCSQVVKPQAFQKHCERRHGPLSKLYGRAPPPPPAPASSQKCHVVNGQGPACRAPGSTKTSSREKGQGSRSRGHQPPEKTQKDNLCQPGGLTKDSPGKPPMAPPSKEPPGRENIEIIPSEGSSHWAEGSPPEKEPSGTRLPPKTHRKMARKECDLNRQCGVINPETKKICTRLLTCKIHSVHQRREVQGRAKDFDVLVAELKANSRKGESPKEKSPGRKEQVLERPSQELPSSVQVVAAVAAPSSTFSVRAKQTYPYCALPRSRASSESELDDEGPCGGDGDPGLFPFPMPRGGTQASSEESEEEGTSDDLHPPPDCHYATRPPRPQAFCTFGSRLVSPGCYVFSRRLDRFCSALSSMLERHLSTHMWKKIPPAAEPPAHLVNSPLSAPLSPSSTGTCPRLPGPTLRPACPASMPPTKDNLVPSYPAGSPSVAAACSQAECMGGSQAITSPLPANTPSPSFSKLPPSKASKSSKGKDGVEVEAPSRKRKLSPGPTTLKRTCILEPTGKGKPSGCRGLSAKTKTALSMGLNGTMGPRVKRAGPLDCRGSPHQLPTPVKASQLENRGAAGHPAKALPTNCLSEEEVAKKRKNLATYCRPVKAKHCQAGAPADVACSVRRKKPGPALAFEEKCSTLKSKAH
UniProt Q96G97: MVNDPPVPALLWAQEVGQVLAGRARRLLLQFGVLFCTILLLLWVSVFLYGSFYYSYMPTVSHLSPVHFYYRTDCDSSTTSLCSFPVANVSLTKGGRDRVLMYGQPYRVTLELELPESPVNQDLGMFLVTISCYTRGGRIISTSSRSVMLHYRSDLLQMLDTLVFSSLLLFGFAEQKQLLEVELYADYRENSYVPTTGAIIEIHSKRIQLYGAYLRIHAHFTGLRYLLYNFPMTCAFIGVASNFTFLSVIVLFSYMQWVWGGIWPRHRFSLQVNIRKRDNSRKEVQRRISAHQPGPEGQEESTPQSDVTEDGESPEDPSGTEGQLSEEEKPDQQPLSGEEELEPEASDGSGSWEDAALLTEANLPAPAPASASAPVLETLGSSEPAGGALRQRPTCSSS
UniProt Q93088: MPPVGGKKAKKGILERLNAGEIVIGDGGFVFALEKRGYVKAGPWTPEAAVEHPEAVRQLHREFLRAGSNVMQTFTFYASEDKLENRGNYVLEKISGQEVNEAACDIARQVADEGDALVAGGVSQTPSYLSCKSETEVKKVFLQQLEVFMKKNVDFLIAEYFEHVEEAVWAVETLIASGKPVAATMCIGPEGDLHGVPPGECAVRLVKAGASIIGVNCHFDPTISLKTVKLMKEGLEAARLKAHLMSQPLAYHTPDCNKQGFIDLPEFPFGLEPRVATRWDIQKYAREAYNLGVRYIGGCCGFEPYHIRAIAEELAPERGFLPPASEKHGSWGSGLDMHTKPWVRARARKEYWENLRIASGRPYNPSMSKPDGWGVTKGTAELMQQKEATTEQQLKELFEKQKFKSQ
UniProt Q96L58: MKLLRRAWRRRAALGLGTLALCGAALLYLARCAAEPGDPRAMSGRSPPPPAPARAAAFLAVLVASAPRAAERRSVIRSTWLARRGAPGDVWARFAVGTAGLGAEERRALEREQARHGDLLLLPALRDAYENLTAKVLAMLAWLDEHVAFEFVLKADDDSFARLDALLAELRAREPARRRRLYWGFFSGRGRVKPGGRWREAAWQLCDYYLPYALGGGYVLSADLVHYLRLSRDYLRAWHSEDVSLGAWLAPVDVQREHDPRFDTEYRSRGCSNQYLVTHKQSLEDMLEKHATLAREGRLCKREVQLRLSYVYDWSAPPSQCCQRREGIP
UniProt O60909: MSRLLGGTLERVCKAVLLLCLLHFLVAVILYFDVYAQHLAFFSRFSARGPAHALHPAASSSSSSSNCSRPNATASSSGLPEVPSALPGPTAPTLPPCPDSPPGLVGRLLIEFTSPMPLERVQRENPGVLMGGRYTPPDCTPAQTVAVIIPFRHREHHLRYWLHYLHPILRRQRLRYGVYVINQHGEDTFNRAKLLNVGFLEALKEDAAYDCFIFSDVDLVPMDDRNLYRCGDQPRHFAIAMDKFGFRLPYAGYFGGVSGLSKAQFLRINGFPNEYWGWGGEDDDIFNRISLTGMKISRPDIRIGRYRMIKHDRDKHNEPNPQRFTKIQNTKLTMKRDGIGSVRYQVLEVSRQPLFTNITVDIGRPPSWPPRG
UniProt P13497: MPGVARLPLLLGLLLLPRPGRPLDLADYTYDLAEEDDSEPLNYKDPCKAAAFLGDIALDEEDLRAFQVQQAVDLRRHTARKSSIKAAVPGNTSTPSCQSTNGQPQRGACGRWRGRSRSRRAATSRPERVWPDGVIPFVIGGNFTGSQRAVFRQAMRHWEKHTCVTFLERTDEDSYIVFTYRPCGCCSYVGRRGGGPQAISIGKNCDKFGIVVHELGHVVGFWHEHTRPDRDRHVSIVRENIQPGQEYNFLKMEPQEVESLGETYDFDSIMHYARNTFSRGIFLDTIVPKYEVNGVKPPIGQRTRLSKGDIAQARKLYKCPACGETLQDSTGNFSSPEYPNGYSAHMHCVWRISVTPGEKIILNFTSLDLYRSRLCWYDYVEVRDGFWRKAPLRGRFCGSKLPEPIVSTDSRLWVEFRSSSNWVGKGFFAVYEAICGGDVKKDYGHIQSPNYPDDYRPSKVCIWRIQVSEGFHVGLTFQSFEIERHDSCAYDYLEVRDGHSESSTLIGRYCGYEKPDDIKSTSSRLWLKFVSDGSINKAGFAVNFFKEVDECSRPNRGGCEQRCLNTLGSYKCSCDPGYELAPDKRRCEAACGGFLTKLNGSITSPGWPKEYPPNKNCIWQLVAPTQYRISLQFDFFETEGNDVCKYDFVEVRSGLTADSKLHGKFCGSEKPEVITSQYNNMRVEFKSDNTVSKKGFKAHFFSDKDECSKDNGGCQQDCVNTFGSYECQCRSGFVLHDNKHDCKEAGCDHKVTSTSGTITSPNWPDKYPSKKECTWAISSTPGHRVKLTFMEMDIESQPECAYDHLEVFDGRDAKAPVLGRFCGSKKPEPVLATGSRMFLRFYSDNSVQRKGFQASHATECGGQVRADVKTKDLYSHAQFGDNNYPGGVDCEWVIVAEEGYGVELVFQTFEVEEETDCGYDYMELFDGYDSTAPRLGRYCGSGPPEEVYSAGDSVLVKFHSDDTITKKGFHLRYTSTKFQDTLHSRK
UniProt Q9NZS9: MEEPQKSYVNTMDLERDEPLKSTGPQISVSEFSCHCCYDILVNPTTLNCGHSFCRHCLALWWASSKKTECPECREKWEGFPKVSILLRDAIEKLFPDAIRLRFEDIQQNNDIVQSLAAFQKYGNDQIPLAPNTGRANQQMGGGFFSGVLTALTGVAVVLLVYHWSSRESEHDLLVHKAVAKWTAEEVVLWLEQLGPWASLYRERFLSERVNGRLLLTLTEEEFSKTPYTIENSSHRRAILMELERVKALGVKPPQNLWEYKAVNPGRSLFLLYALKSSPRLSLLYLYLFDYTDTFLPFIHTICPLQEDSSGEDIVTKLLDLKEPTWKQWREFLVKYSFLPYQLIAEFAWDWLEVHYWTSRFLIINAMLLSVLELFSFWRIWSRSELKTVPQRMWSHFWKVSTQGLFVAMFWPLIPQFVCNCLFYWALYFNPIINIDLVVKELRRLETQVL
UniProt Q67FW5: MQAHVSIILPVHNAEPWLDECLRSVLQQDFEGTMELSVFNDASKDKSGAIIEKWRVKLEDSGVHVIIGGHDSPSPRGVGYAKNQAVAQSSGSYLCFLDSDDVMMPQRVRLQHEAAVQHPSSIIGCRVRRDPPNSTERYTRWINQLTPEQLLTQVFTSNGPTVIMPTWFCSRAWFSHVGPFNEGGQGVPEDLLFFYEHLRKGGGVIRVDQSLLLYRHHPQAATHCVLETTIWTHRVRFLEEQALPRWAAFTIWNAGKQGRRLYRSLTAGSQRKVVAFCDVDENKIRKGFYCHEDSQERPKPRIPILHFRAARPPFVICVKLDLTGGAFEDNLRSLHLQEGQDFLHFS
UniProt Q96IK1: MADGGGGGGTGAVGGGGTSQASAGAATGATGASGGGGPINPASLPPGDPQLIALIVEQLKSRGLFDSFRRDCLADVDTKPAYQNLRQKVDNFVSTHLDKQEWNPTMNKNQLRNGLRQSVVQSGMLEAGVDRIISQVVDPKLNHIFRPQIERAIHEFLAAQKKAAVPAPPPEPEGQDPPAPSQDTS
UniProt Q9BUT1: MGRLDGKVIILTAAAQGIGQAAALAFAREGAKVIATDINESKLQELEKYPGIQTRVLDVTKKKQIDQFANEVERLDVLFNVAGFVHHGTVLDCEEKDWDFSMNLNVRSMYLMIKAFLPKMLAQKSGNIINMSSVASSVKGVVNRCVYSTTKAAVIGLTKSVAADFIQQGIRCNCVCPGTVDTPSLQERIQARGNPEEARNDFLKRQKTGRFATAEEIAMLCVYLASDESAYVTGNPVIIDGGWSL

Experiments:
Assay in all cases: log2 fold change, soluble protein after heating vs DMSO (PISA); higher = thermal stabilisation; K562 cells, 10 uM, 30 min; active = over 0.2 and 3.5 SD of the protein, either way, in both replicates (recomputed)
volasertib = compound: CC[C@@H]1C(=O)N(C)c2cnc(Nc3ccc(C(=O)N[C@H]4CC[C@H](N5CCN(CC6CC6)CC5)CC4)cc3OC)nc2N1C(C)C [volasertib]
In short: (§1)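 K562 cells at 2×10^6 cells/mL were treated with 10 μM compound for 30 min. Aliquots were heated for 3 min across 48°C-58°C, pooled, and extracted in PBS with 0.5% NP-40 at 4°C; soluble protein was the supernatant after 21,000xg for 90 min. Soluble protein was quantified by TMTpro 16plex LC-MS/MS with channel sums equalised, and reported as log2 fold change in thermal stability against DMSO controls, with values from duplicates.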

[1] = compound: CN(C)CC(=O)Nc1ccc2[nH]c(=O)c3ccccc3c2c1
In short: as §1

[2] = compound: CN1C2=C(C3=C1C(=O)N(N=C3)CC4=CC(=CC=C4)N)SC(=C2)S(=O)C
In short: as §1

saracatinib = compound: CN1CCN(CCOc2cc(OC3CCOCC3)c3c(Nc4c(Cl)ccc5c4OCO5)ncnc3c2)CC1 [saracatinib]
In short: as §1

sotrastaurin = compound: CN1CCN(c2nc(C3=C(c4c[nH]c5ccccc45)C(=O)NC3=O)c3ccccc3n2)CC1 [sotrastaurin]
In short: as §1

Tubastatin A = compound: CN1CCc2c(c3ccccc3n2Cc2ccc(C(=O)NO)cc2)C1 [Tubastatin A]
In short: as §1

[3] = compound: CNC(=O)C1=CC=CC=C1NC2=NC(=NC=C2Cl)NC3=C(C=C(C=C3)N4CCOCC4)OC
In short: as §1

defactinib = compound: CNC(=O)c1ccc(Nc2ncc(C(F)(F)F)c(NCc3nccnc3N(C)S(C)(=O)=O)n2)cc1 [defactinib]
In short: as §1

[4] = compound: CNc1nc(-c2ccc3c(N)n[nH]c3c2)cc(N2C[C@@H](C(=O)NC3CCCCC3)CC[C@H]2C)n1
In short: as §1

[5] = compound: COC(=O)[C@H](CCSC)NC(=O)C1=C(C=C(C=C1)NC[C@H](CS)N)C2=CC=CC=C2
In short: as §1

[6] = compound: CC[C@@H]1C(=O)N(C)c2cnc(Nc3ccc(C(=O)NC4CCN(C)CC4)cc3OC)nc2N1C1CCCC1
In short: as §1

rosiglitazone = compound: CN(CCOC1=CC=C(C=C1)C[C@H]2C(=O)NC(=O)S2)C3=CC=CC=N3 (racemic) [rosiglitazone]
In short: as §1

alvocidib = compound: CN1CC[C@H](c2c(O)cc(O)c3c(=O)cc(-c4ccccc4Cl)oc23)[C@H](O)C1 [alvocidib]
In short: as §1

rucaparib = compound: CNCc1ccc(-c2[nH]c3cc(F)cc4c3c2CCNC4=O)cc1 [rucaparib]
In short: as §1

encorafenib = compound: COC(=O)N[C@@H](C)CNc1nccc(-c2cn(C(C)C)nc2-c2cc(Cl)cc(NS(C)(=O)=O)c2F)n1 [encorafenib]
In short: as §1

[7] = compound: CCn1cc(-c2ccnc3[nH]c(-c4cccc(CN(C)C)c4)cc23)c(-c2ccc(NC(=O)N(C)C)cc2)n1
In short: as §1

[8] = compound: CN1CCC(CNc2ccc3ncc(-c4cccc(OC(F)(F)F)c4)n3n2)CC1
In short: as §1

[9] = compound: CC[C@H](C)N1C=C(C2=C(C=C(C=C21)C3=CN=C(C=C3)N4CCNCC4)C(=O)NCC5=C(C=C(NC5=O)C)C)C
In short: as §1

epoxomicin = compound: CC[C@H](C)[C@@H](C(=O)N[C@@H]([C@@H](C)O)C(=O)N[C@@H](CC(C)C)C(=O)[C@]1(CO1)C)NC(=O)[C@H]([C@@H](C)CC)N(C)C(=O)C [epoxomicin]
In short: as §1

[10] = compound: CCn1c(C(=O)N(C2CC2)C2CC2)cc2c3c(ncn3C)c(Nc3cc(C)n(C)n3)nc21
In short: as §1

Measured: log2 fold change

AUNIP isoform 2 (UniProt Q9H7T9)
inactive: volasertib -0.03 | [1] -0.163 | [2] -0.031 | saracatinib -0.007 | sotrastaurin -0.085 | Tubastatin A 0.278 | [3] 0.189 | defactinib 0.043 | [4] -0.086 | [5] 0.342

BAIAP2 isoform 4 (UniProt Q9UQB8)
inactive: sotrastaurin 0.147 | Tubastatin A 0.288

BCDIN3D (UniProt Q7Z5W3)
inactive: [6] -0.03 | rosiglitazone -0.007 | alvocidib -0.14 | Tubastatin A 0.033 | rucaparib 0.006 | encorafenib -0.066

BRD2 isoform 2 (UniProt P25440)
active: volasertib 1.76
inactive: [7] 0.486 | [1] 0.115 | [2] -0.132 | [8] 0.129 | saracatinib 0 | sotrastaurin -0.172 | Tubastatin A -0.37 | [3] 0.146 | defactinib -0.125 | [4] 0.255 | [5] -0.074

B4GALT4 (UniProt O60513)
inactive: [9] 0.104 | [7] 0.372 | rosiglitazone -0.037 | [8] -0.053 | sotrastaurin -0.093

BCOR (UniProt Q6W2J9)
inactive: epoxomicin -0.225 | [10] 0.079 | [1] -0.159 | rosiglitazone 0.035 | [2] -0.08 | saracatinib -0.182 | sotrastaurin 0.215 | alvocidib 0.146 | Tubastatin A 0.073 | [3] -0.093 | defactinib 0.041 | [4] -0.102 | [5] 0.07

BCS1L, A0A2R8Y7T3
inactive: rosiglitazone 0.094

BRI3 (UniProt O95415)
inactive: rosiglitazone 0.136

BAP18 isoform 3 (UniProt Q8IXM2)
inactive: [7] 0.028 | [8] 0.2 | Tubastatin A 0.301 | [3] -0.129

ATXN7L2 (UniProt Q5T6C5)
inactive: epoxomicin -0.197

BRAF, A0A2R8Y8E0
inactive: [9] 0.047 | Tubastatin A -0.084 | [3] 0.143

BLVRA (UniProt C9J1E1)
inactive: volasertib -0.028 | [9] 0.226 | [10] -0.041 | [7] 0.015 | [1] -0.186 | rosiglitazone 0.124 | [2] 0.081 | [8] -0.001 | saracatinib -0.054 | alvocidib 0.138 | [3] 0.054 | defactinib 0.021 | [4] -0.039 | [5] 0.135

BSCL2 isoform 4 (UniProt Q96G97)
inactive: volasertib 0.072 | [9] 0.093 | epoxomicin -0.05 | [7] 0 | [1] -0.006 | [2] -0.005 | [8] -0.057 | saracatinib -0.019 | Tubastatin A 0.03 | [3] -0.025 | defactinib -0.113 | [4] -0.122 | [5] -0.071

BHMT (UniProt Q93088)
inactive: [2] 0.47 | saracatinib 0.346 | sotrastaurin 0.024 | [4] -0.143

B3GALT6 (UniProt Q96L58)
inactive: [10] -0.072 | [3] -0.01

BPTF (UniProt Q12830)
inactive: [9] 0 | epoxomicin -0.38 | [10] -0.351 | [2] 0.096 | saracatinib -0.152 | sotrastaurin 0.085 | [3] 0.23 | [4] -0.27

BCL7C isoform 2 (UniProt Q8WUZ0)
inactive: [9] -0.113 | epoxomicin -0.015 | [10] -0.282 | rosiglitazone -0.037 | sotrastaurin 0.03 | alvocidib -0.146 | [3] -0.058

ATRX (UniProt P46100)
inactive: [7] 0.113 | [8] -0.016 | alvocidib -0.089

B4GALT2 isoform 3 (UniProt O60909)
inactive: sotrastaurin -0.191

BMP1 (UniProt P13497)
inactive: [10] -0.04 | rosiglitazone 0.294 | [3] -0.245

Taken from the entries so far (two entries):
ATRX (UniProt P46100)
inactive: [7] 0.113 | [8] -0.016 | alvocidib -0.089

B4GALT2 isoform 3 (UniProt O60909)
inactive: sotrastaurin -0.191

Remaining list, next part

BFAR (UniProt Q9NZS9)
inactive: volasertib -0.054 | epoxomicin 0.009 | [1] -0.047 | defactinib 0.023 | [5] 0.041

B3GNTL1 (UniProt Q67FW5)
inactive: volasertib -0.081 | [9] -0.067 | epoxomicin 0.055 | [10] 0 | [7] -0.005 | [1] -0.076 | rosiglitazone 0.003 | [2] -0.027 | [8] -0.144 | saracatinib 0.019 | sotrastaurin 0.066 | alvocidib 0.011 | Tubastatin A -0.086 | [3] -0.032 | defactinib 0.014 | [4] -0.094 | [5] 0.04

BIN1 (UniProt O00499)
inactive: [1] -0.131 | defactinib 0.06 | [5] 0.145

BOD1 (UniProt Q96IK1)
inactive: [10] 0.042 | [7] 0.116 | [8] 0.086 | [3] -0.077

BCL7B (UniProt Q9BQE9)
inactive: [1] -0.167 | [2] 0.085 | saracatinib 0.012 | alvocidib 0.209 | defactinib -0.047 | [4] 0.139 | [5] 0.209

B3GNT8 (UniProt Q7Z7M8)
inactive: sotrastaurin -0.016

B3GNT5 (UniProt Q9BYG0)
inactive: [9] 0.119 | epoxomicin -0.01 | [10] -0.034 | [1] 0.081 | rosiglitazone 0.058 | [2] -0.179 | saracatinib 0.332 | sotrastaurin 0.031 | alvocidib 0.09 | [3] 0.067 | defactinib 0.05 | [4] -0.081 | [5] -0.032

BDH2 (UniProt Q9BUT1)
inactive: volasertib -0.126 | [7] 0.005 | [1] 0.367 | [2] -0.028 | [8] -0.033 | saracatinib -0.088 | sotrastaurin 0 | [3] -0.061 | defactinib -0.021 | [4] 0.015 | [5] -0.039
